The source of these data is patent publication US20250320297A1.

No constants are given. Whether binding was seen depends on the method and setting. Some binding calls cover weakened binding; strength is not graded here. Tags and fused reporters may be left off the sequences shown.

The target in this test is Cyno PDL1-His (recombinant cynomolgus PDL1 with C-terminal poly histidine tag, Acro Biosystems) (cynomolgus) (UniProt G7PSE7). Briefly: BLI (Octet). In general terms: In BLI a coated tip is dipped into the sample, and binding shifts an interference pattern.

B1: 10A4 VHH-Fc (chimeric bivalent antibody) (antibody, human IgG1, V domains shown)
VH: QVKLEESGGGLVMAGGSLRLSCAASGGPFMSYAMGWFRQAPGKEREFVAAIRWNGISTFYADSVKGRFTVSRDNGKNMAFLQMNSLKPEDTAVYYCAAAQTIVTVPENYEYHYWGQGTQVTVSS
On to B1, for which the binding entry is given as “binds”.
